{"source": "PubChem BioAssay AID1224830 | NIAID | 2016", "test": "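Genes whose knock-down alters the TNF-alpha reporter response to LPS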 (primary screen)", "system": "human THP-1 monocytic leukaemia cells, TNF dual-luciferase reporter clone, PMA-differentiated to macrophage-like cells", "knock-down reagent": "siRNA pool against human genes, 50 nM", "time to read-out": "LPS for 4 h, given about 3 days after siRNA transfection", "challenge": "bacterial LPS (TLR4 ligand), 10 ng/ml", "measurement": "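Ratio of firefly to renilla light, scaled to the plate median and expressed as a robust z-score per replicate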", "direction": "TNF reporter robust z-score: higher = stronger TNF reporter response to LPS", "call rule": "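a well is active when its z-score exceeds 2.8 or falls below -1.5; control wells carry no call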", "note": "In all, the deposit lists about 18,000 reagents; this is a part drawn at random. In the full data, about 2,900 (16%) were called active. 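Calls are made per well; low scores hint the gene aids the LPS response, high scores that it dampens it.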 Repeated entries: four replicate wells of each siRNA pool. No sequences are given here."}
{"target gene": "H4C7 (H4 clustered histone 7)", "TNF reporter robust z-score": -0.27, "outcome": "inactive"}
{"target gene": "H4C7 (H4 clustered histone 7)", "TNF reporter robust z-score": -0.23, "outcome": "inactive"}
{"target gene": "H4C7 (H4 clustered histone 7)", "TNF reporter robust z-score": 0.04, "outcome": "inactive"}
{"target gene": "DOK5 (docking protein 5)", "TNF reporter robust z-score": 1.53, "outcome": "inactive"}
{"target gene": "DOK5 (docking protein 5)", "TNF reporter robust z-score": 4.81, "outcome": "active"}
{"target gene": "DOK5 (docking protein 5)", "TNF reporter robust z-score": 0.65, "outcome": "inactive"}
{"target gene": "DOK5 (docking protein 5)", "TNF reporter robust z-score": 2.32, "outcome": "inactive"}
{"target gene": "PLPP5 (phospholipid phosphatase 5)", "TNF reporter robust z-score": 0.48, "outcome": "inactive"}
{"target gene": "PLPP5 (phospholipid phosphatase 5)", "TNF reporter robust z-score": -0.72, "outcome": "inactive"}
{"target gene": "PLPP5 (phospholipid phosphatase 5)", "TNF reporter robust z-score": -0.62, "outcome": "inactive"}
{"target gene": "PLPP5 (phospholipid phosphatase 5)", "TNF reporter robust z-score": -0.03, "outcome": "inactive"}
{"target gene": "CNTNAP4 (contactin associated protein family member 4)", "TNF reporter robust z-score": 0.24, "outcome": "inactive"}
{"target gene": "CNTNAP4 (contactin associated protein family member 4)", "TNF reporter robust z-score": 1.47, "outcome": "inactive"}
{"target gene": "CNTNAP4 (contactin associated protein family member 4)", "TNF reporter robust z-score": 0.63, "outcome": "inactive"}
{"target gene": "CNTNAP4 (contactin associated protein family member 4)", "TNF reporter robust z-score": 1.66, "outcome": "inactive"}
{"target gene": "FANCE (FA complementation group E)", "TNF reporter robust z-score": -0.94, "outcome": "inactive"}
{"target gene": "FANCE (FA complementation group E)", "TNF reporter robust z-score": -1.32, "outcome": "inactive"}
{"target gene": "FANCE (FA complementation group E)", "TNF reporter robust z-score": -1.57, "outcome": "active"}
{"target gene": "FANCE (FA complementation group E)", "TNF reporter robust z-score": 0.51, "outcome": "inactive"}
{"target gene": "BTBD1 (BTB domain containing 1)", "TNF reporter robust z-score": -0.09, "outcome": "inactive"}
{"target gene": "BTBD1 (BTB domain containing 1)", "TNF reporter robust z-score": -0.38, "outcome": "inactive"}
{"target gene": "BTBD1 (BTB domain containing 1)", "TNF reporter robust z-score": 0.3, "outcome": "inactive"}
{"target gene": "BTBD1 (BTB domain containing 1)", "TNF reporter robust z-score": 0.83, "outcome": "inactive"}
{"target gene": "ADGRB2 (adhesion G protein-coupled receptor B2)", "TNF reporter robust z-score": 0, "outcome": "inactive"}
{"target gene": "ADGRB2 (adhesion G protein-coupled receptor B2)", "TNF reporter robust z-score": 0.68, "outcome": "inactive"}
{"target gene": "ADGRB2 (adhesion G protein-coupled receptor B2)", "TNF reporter robust z-score": 0.99, "outcome": "inactive"}
{"target gene": "ADGRB2 (adhesion G protein-coupled receptor B2)", "TNF reporter robust z-score": 0.92, "outcome": "inactive"}
{"target gene": "CYP2S1 (cytochrome P450 family 2 subfamily S member 1)", "TNF reporter robust z-score": 1.1, "outcome": "inactive"}
{"target gene": "CYP2S1 (cytochrome P450 family 2 subfamily S member 1)", "TNF reporter robust z-score": 1.49, "outcome": "inactive"}
{"target gene": "CYP2S1 (cytochrome P450 family 2 subfamily S member 1)", "TNF reporter robust z-score": 1.68, "outcome": "inactive"}
{"target gene": "CYP2S1 (cytochrome P450 family 2 subfamily S member 1)", "TNF reporter robust z-score": 2.08, "outcome": "inactive"}
{"target gene": "CEP170B (centrosomal protein 170B)", "TNF reporter robust z-score": -0.74, "outcome": "inactive"}
{"target gene": "CEP170B (centrosomal protein 170B)", "TNF reporter robust z-score": -0.7, "outcome": "inactive"}
{"target gene": "CEP170B (centrosomal protein 170B)", "TNF reporter robust z-score": -1.39, "outcome": "inactive"}
{"target gene": "CEP170B (centrosomal protein 170B)", "TNF reporter robust z-score": -0.79, "outcome": "inactive"}
{"target gene": "FAM110B (family with sequence similarity 110 member B)", "TNF reporter robust z-score": -0.19, "outcome": "inactive"}
{"target gene": "FAM110B (family with sequence similarity 110 member B)", "TNF reporter robust z-score": 0.5, "outcome": "inactive"}
{"target gene": "FAM110B (family with sequence similarity 110 member B)", "TNF reporter robust z-score": -0.22, "outcome": "inactive"}
{"target gene": "FAM110B (family with sequence similarity 110 member B)", "TNF reporter robust z-score": -0.05, "outcome": "inactive"}
{"target gene": "AFAP1L2 (actin filament associated protein 1 like 2)", "TNF reporter robust z-score": 3.84, "outcome": "active"}
{"target gene": "AFAP1L2 (actin filament associated protein 1 like 2)", "TNF reporter robust z-score": 2.93, "outcome": "active"}
{"target gene": "AFAP1L2 (actin filament associated protein 1 like 2)", "TNF reporter robust z-score": -0.62, "outcome": "inactive"}
{"target gene": "AFAP1L2 (actin filament associated protein 1 like 2)", "TNF reporter robust z-score": 0.26, "outcome": "inactive"}
{"target gene": "HNRNPH3 (heterogeneous nuclear ribonucleoprotein H3)", "TNF reporter robust z-score": 0.04, "outcome": "inactive"}
{"target gene": "HNRNPH3 (heterogeneous nuclear ribonucleoprotein H3)", "TNF reporter robust z-score": 1.97, "outcome": "inactive"}
{"target gene": "HNRNPH3 (heterogeneous nuclear ribonucleoprotein H3)", "TNF reporter robust z-score": 2.32, "outcome": "inactive"}
{"target gene": "HNRNPH3 (heterogeneous nuclear ribonucleoprotein H3)", "TNF reporter robust z-score": 2.83, "outcome": "active"}
{"target gene": "C16orf46 (chromosome 16 open reading frame 46)", "TNF reporter robust z-score": 0.31, "outcome": "inactive"}
{"target gene": "C16orf46 (chromosome 16 open reading frame 46)", "TNF reporter robust z-score": -0.31, "outcome": "inactive"}
{"target gene": "C16orf46 (chromosome 16 open reading frame 46)", "TNF reporter robust z-score": -0.49, "outcome": "inactive"}
{"target gene": "C16orf46 (chromosome 16 open reading frame 46)", "TNF reporter robust z-score": -1.03, "outcome": "inactive"}
{"target gene": "DNAJC10 (DnaJ heat shock protein family (Hsp40) member C10)", "TNF reporter robust z-score": -0.5, "outcome": "inactive"}
{"target gene": "DNAJC10 (DnaJ heat shock protein family (Hsp40) member C10)", "TNF reporter robust z-score": -0.81, "outcome": "inactive"}
{"target gene": "DNAJC10 (DnaJ heat shock protein family (Hsp40) member C10)", "TNF reporter robust z-score": -0.03, "outcome": "inactive"}
{"target gene": "DNAJC10 (DnaJ heat shock protein family (Hsp40) member C10)", "TNF reporter robust z-score": -0.52, "outcome": "inactive"}
{"target gene": "GLS (glutaminase)", "TNF reporter robust z-score": 0.92, "outcome": "inactive"}
{"target gene": "GLS (glutaminase)", "TNF reporter robust z-score": 0.95, "outcome": "inactive"}
{"target gene": "GLS (glutaminase)", "TNF reporter robust z-score": 0.12, "outcome": "inactive"}
{"target gene": "GLS (glutaminase)", "TNF reporter robust z-score": 1.09, "outcome": "inactive"}
{"target gene": "SLC35D1", "TNF reporter robust z-score": -0.59, "outcome": "inactive"}
{"target gene": "SLC35D1", "TNF reporter robust z-score": 0.57, "outcome": "inactive"}
{"target gene": "SLC35D1", "TNF reporter robust z-score": 0.41, "outcome": "inactive"}
{"target gene": "SLC35D1", "TNF reporter robust z-score": 0.4, "outcome": "inactive"}

Called active (from the list above):
{"target gene": "DOK5 (docking protein 5)", "TNF reporter robust z-score": 4.81, "outcome": "active"}
{"target gene": "FANCE (FA complementation group E)", "TNF reporter robust z-score": -1.57, "outcome": "active"}
{"target gene": "AFAP1L2 (actin filament associated protein 1 like 2)", "TNF reporter robust z-score": 3.84, "outcome": "active"}
{"target gene": "AFAP1L2 (actin filament associated protein 1 like 2)", "TNF reporter robust z-score": 2.93, "outcome": "active"}
{"target gene": "HNRNPH3 (heterogeneous nuclear ribonucleoprotein H3)", "TNF reporter robust z-score": 2.83, "outcome": "active"}
